Data published in paper PMC10292663.
No constants are given. Whether binding was seen depends on the method and setting. Binding seen in cells or lysates may run through a third protein. Some binding calls cover weakened binding; strength is not graded here.

By UniProt entry, the sequences of proteins in these tests, tags left out.
UniProt Q02539: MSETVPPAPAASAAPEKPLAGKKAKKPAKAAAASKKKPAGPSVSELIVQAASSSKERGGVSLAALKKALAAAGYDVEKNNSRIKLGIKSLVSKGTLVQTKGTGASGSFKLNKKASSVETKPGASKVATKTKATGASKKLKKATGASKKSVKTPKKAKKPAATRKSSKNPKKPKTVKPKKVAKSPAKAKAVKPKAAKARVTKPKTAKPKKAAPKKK
UniProt P16402: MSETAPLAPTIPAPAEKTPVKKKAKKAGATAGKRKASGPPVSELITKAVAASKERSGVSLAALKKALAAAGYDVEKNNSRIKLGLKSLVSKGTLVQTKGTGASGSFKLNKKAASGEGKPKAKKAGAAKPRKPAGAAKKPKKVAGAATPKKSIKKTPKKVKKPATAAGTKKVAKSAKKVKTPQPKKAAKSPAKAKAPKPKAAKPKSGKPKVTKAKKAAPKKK

Legend:
Assay in all cases: co-IP; GFP immunoprecipitation (GFP-Trap agarose) from 2.5 mg whole-cell extract of co-transfected HEK293 cells, 2 h at 4°C; cells treated or not with 10 Gy IR or 3 mM HU for 2 h (2 or 4 h for the BRCA1 fragments); Western blot
GFP-BRCA1 = GFP-BRCA1 (UniProt P38398)
GFP-BRCA1 (1,063–1,863) = GFP-BRCA1 (1,063–1,863) (UniProt P38398)
GFP-BRCA1 (1–1,071) = GFP-BRCA1 (1–1,071) (UniProt P38398)
GFP-BRCA1 S1336A mutant = GFP-BRCA1 S1336A mutant (UniProt P38398)

| binding (GFP-BRCA1) | binding (GFP-BRCA1 (1,063–1,863)) | binding (GFP-BRCA1 (1–1,071)) | binding (GFP-BRCA1 S1336A mutant) | Substance |
| --- | --- | --- | --- | --- |
| binds |  |  |  | FLAG-H1.1 (from UniProt Q02539 1-215) |
| binds | binds | binds | binds | FLAG-H1.3 (from UniProt P16402 1-221) |
